Results reported in PMC10163288.
Some of the results follow.

B1: il2ra_site2_3nfp_normal_mot_HHH_b2_01155_000000159_0001_38_52_H_._c393a752425a4fe2e67a9f8335af7c62_0001_1_0001_0000200010_0000001_0 (protein)
chain: SKEEEAKESAKKANNPEAEEIVERVEELLREGDPEKLRELLARVTHEAYERRDPDLFYVIAILAF
B2: il2ra_site1_2b5i_sap_4_mot_HHH_b1_05282_000000062_0001_1_18_H_._HHH_b2_07833_0002_0000100001_0000001_0_0001_af2pred_dldesign_0_af2pred (protein)
chain: SSSSDDEIYDLYKKALELYRAGKKEEAEKVLEEALELAKKAGSKKIEKEIEYLLKYVKKLSSSSS
B3: il2ra_site1_2b5i_sap_10_mot_2d25717a5c0121ea846597d88a9db610_0001_1_000000082_0001_1_13_H_._HHH_b1_03920_af2_0002_0000300009_0000001_1_0001 (protein)
chain: SSSSSDLERMVEELLEEAEELREEGNPHRARSIVHLALAVARAARDPELERLVEEILERISSSSS
B4: il2ra_site2_3nfp_normal_mot_HHH_b1_01086_af2_000000264_0001_39_53_H_._HHH_b1_06634_0001_0000100007_0000001_0_1_af2pred_0001_af2pred_1 (protein)
chain: SSSSDEVERRVEELLEEAKEIDDEEEFEEVLAEASEIALENNDPELLLRIAEVLLEFLERSSSSS
B5: il2ra_site2_2erj_normal_mot_HHH_b1_03107_000000098_0001_39_52_H_._HHH_b2_04977_0001_0000500051_0000001_0 (protein)
chain: SSSSSEERREIFEEIARLSAELAEKGDPELRERLEELLEIAQELGDEAAVRYAEFALRDHSSSSS
B6: il2ra_site2_3nfp_sap_12_mot_HHH_b1_07636_000000295_0001_20_36_H_._ems_3hM_1194_af2_0001_0000400027_0000001_0_0001 (protein)
chain: SSSSDKEWALAAARTLLEVLERNNDEENFEELRRVVEEVEEHGDPRLILELYKLAREIYEKSSSS
B7: il2ra_site1_2b5i_normal_mot_HHH_b2_04910_000000118_0001_1_19_H_._HHH_b2_02918_af2_0001_0000500011_0000001_0_af2pred_0001_af2pred (protein)
chain: SSSSSDAREEAWELMQEANEAFKKGDDERARELLEQALEAAEEANNPSLAKSIRSMLELASSSSS
B8: il2ra_site1_2b5i_normal_mot_HHH_b2_04910_000000118_0001_1_19_H_._HHH_b1_02267_0001_0000600028_0000001_0 (protein)
chain: SSSDESRRARELFHEADELDRNGNPEEAEKVLEEALKLAEEGGSRQLFRMIENALEEIEAGSSSS
B9: il2ra_site1_1z92_normal_mot_8b466c8ab6a4ea9d290724e70e8647ea_0001_000000211_0001_54_65_H_._f5bcb56c74c9f00413c49eba35dae90c_0001_af2_0001_0000200029_0000001_0 (protein)
chain: DLLEELEELLEKENDPALEVLRELEELEKHGDPAAEFALEQIERKLRRGDPEAVKKLLRRFLRSL
B10: il2ra_site1_2b5i_sap_6_mot_HHH_b1_05188_af2_000000065_0001_43_56_H_._HHH_b2_02594_0001_0000300014_0000001_0_0001 (protein)
chain: SSSSDEEQEEVQRLFREASEAKRKGNPEEAERLLEEALELAEKIGDPSAHRDIRRFLELLRSSSS
B11: il2ra_site2_3nfp_normal_mot_HHH_b2_07186_000000286_0001_42_55_H_._HHH_b1_03616_0001_0000300026_0000001_0 (protein)
chain: SSSSSEEERIEELLEELEKAIENNDPEKARELIREILHLIFELKNVELYSRLEELIFRLYSSSSS
B12: il2ra_site2_3nfp_sap_20_mot_HHH_b1_02297_000000279_0001_41_58_H_._HHH_b2_01473_0001_0000500048_0000001_0_0001 (protein)
chain: SSSSDKAEEYLRIALELLEEAIEAGDKESAKSHLETAKAAAESRNDEEVKEELEKLEELLSSSSS
B13: il2ra_site1_2b5i_normal_mot_HHH_b1_02015_af2_000000003_0001_1_19_H_._HHH_b1_08577_0001_0000200008_0000001_1 (protein)
chain: SSSSSSDEELQELFHEAQRLWKNGNPEEAREVLKEAIELAREEGDEKALKDLEQLLERYSSSSSS
B14: il2ra_site2_3nfp_sap_24_mot_HHH_b2_00236_af2_000000197_0001_23_39_H_._44c1d34e7de0649e2bc3bb7207530e70_0001_0001_0000300025_0000001_0_0001 (protein)
chain: SSSSDAHEQVEETLEYLKAAALLRNDEELREVIEEAEEILKEDNDPEKALRLLYEIIDKATSSSS
B15: il2ra_site2_2erj_sap_24_mot_HHH_b2_03863_000000157_0001_22_38_H_._HHH_b1_03634_0001_0000200005_0000001_1_0001 (protein)
chain: SEEEELLKLVKKGDLRAVYKIANLIMHLKANGNPEEAEELARLLTEVLEELGTPNAAEIVKQSLR
B16: il2ra_site2_3nfp_sap_24_mot_HHH_b1_06589_000000230_0001_37_50_H_._HHH_b1_00803_0001_0000500019_0000001_0_0001 (protein)
chain: SSSSSDHEVYERVVELLKEANEIEDEEERREVLEEAEELAKELGDPVLERSVRDVAEAVNSSSSS
B17: il2ra_site2_2erj_sap_26_mot_6c2800a769814540b5b47941e710ff28_0001_000000197_0001_35_49_H_._HHH_b2_05475_0001_0000200011_0000001_0_0001_af2pred_0001_af2pred (protein)
chain: DDEEYIEMWVELAAKRLGVPSVEVETRNGTLHVTVNGTDEAARRVLLAAELAAKAAGLPFETTEE
B18: il2ra_site2_3nfp_sap_20_mot_HHH_b1_03818_000000217_0001_1_20_H_._HHH_b1_03372_af2_0001_0000600033_0000001_0_0001_af2pred_0001_1_af2pred_swapped (protein)
chain: SSSSDEIEKAVRAALRFAKQAYEEGNPELAENALEYAKAVALLNDNPELEKEVQKVEEELKSSSS
B19: il2ra_site2_3nfp_normal_mot_HHH_b2_08245_000000023_0001_41_55_H_._HHH_b2_01605_0001_0000500032_0000001_0 (protein)
chain: SSSSDEEEIEELLRKAEQAVREGDEELAKKLLQRATHVAYELNDPRLFFRVAELLFLLEHSSSSS

What follows are binders tested against il2ra, P01589 (assay: yeast display titration).

Binder | apparent Kd
B1 | inactive: no binding seen
B2 | inactive: no binding seen
B3 | inactive: no binding seen
B4 | inactive: no binding seen
B5 | inactive: no binding seen
B6 | inactive: no binding seen
B7 | inactive: no binding seen
B8 | inactive: no binding seen
B9 | inactive: no binding seen
B10 | inactive: no binding seen
B11 | inactive: no binding seen
B12 | inactive: no binding seen
B13 | inactive: no binding seen
B14 | inactive: no binding seen
B15 | inactive: no binding seen
B16 | inactive: no binding seen
B17 | inactive: no binding seen
B18 | inactive: no binding seen
B19 | inactive: no binding seen

Some of the entries so far, tab-delimited:
Binder	apparent Kd
B9	inactive: no binding seen
B10	inactive: no binding seen
B11	inactive: no binding seen
B12	inactive: no binding seen
